Patent US20200407442A1
Results are given in words; binding and its absence hold for the method and conditions named. Some results given as binding are weak or reduced against the parent protein; the word gives no strength. For some assays here: Sequences can lack the tags named with a protein.

Key:
[1] = target: T1, mFc-tagged LAG-3 protein (human) (UniProt P18627); experiment: FACS blocking: antibody pre-incubated with mFc-tagged LAG-3, binding of LAG-3 to MHC-II on Raji cells detected with anti-mouse IgG Fc-PE
T1 sequence: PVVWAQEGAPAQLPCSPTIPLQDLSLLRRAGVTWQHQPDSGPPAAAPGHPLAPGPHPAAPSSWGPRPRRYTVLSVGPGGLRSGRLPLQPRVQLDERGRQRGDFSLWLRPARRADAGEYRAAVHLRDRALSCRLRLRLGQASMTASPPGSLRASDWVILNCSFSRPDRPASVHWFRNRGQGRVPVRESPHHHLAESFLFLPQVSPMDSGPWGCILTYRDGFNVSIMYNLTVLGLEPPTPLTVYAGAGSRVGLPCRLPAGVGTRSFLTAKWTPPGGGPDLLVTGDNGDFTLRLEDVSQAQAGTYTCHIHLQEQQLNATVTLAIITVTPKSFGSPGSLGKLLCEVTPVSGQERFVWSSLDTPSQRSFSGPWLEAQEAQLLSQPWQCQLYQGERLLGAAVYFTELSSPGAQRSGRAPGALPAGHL

[2] = target: T1, mFc-tagged LAG-3 protein (human); experiment: ELISA blocking: antibody mixed with mFc-tagged LAG-3, binding of LAG-3 to plate-coated human LSECtin
[3] = target: T2, human LAG-3 protein (SPR analyte) (human) (UniProt P18627); experiment: SPR
T2 sequence: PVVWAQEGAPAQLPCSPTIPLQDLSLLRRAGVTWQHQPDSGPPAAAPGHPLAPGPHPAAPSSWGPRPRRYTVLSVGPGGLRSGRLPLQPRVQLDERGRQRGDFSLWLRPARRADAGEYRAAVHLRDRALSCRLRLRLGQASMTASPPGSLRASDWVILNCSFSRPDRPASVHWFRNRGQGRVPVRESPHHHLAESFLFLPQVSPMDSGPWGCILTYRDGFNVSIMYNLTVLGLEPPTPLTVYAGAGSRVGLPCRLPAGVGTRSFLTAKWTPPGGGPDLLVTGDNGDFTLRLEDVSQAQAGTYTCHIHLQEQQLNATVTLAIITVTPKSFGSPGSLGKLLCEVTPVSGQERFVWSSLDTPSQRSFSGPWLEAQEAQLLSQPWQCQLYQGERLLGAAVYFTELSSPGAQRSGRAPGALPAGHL

[4] = target: T1, mFc-tagged LAG-3 protein (human); experiment: ELISA blocking: antibody mixed with mFc-tagged LAG-3, binding of LAG-3 to plate-coated Galectin-3

Measured: binding

B1: 3.40.19-uAb-IgG4L (antibody, V domains shown)
VH: QLQLQESGPGLVKPSETLSLTCTVSGDSISSTSYYWGWIRQPPGKGLEWIGSFYYSGSTYYNPSLKSRVTISVDTSKNQFSLKLNSVTAADTAVYYCARMQLWSYDVDVWGQGTTVTVSS
VL: QSALTQPASVSGSPGQSITISCTGTSSDVGGYDYVAWYQQHPGKVPKLMIYDVSERPSGVSNRFSGSKSGNTASLTISGLQAEDEADYYCSSYTSTTTLVVFGGGTKLSVL
binds: [1] | [2] | [3] | [4]

B2: 1.53.3-uAb-IgG4k (antibody, V domains shown)
VH: QVQLQQWGAGLLKPSETLSLTCGVYGGSFSGYYWSWIRQPPGMGLEWIGEINHRGNTNYNPSLKSRVTISEDTSKNQFSLRLSSVTAADTAVYFCTRGEDYSDYDYYGDFWGQGTLVTVSS
VL: EIVLTQSPATLSLSQGERATLSCRASQSISSYLAWYQQKPGQAPRLLIYAASNRATGIPARFSGSGSGTDFTLTISSLEPEDFAIYYCQQRSNWPLTFGGGTKVEIK
binds: [1] | [2] | [3] | [4]
